# Results reported in the supplement of paper PMC8728848.
# Some of the results follow.
# B1: LlpA1 (Pseudomonas fluorescens), Q4KHC3 (protein)
# chain: MGSSHHHHHHSSGLVPRGSHMAWIRYDFTDNGSSVLPARYYMAPNQYLQSPNKRFKLLFQADGNLALYDGAQLAWVADQNTPFTNVSKGNKKDPMMVFMNYGFVLDDPLRGRIWSTTPSDPTMGSREDASLRAFTQVQDDGNIVTVDTIPHWYAPNGRVFTPAVGAAMIIGGTTELVPGQFYSAGEHSLVFQGDGNLVVYGPNSSVIWATYTQNKGGVRCVMQEDGNLVIYAANNGVVWQSGTGGHPGATIRLQANGSFTIVTERPVWARFGYTPTIKPPRVFYPDHKWKTGSYTWNNVF
# Key:
# Assay in all cases: glycan array binding signal (z-score within array); higher = stronger binding
# Settings in all cases: glycan notation: IUPAC condensed, linker removed
# [1] = biological target: Fuc(a1-2)Gal(b1-4)[Fuc(a1-3)]GlcNAc(b1-3)Gal(b1-4)[Fuc(a1-3)]GlcNAc
# How it was run: (§1)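 The binding signal is a Z-score computed within each array and averaged over linkers. Arrays of the same protein sequence at different concentrations or buffers were also averaged together. Data originate from 3228 arrays in the Consortium for Functional Glycomics database, kept only where the protein sequence was available.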
# [2] = biological target: Fuc(a1-2)Gal(b1-4)[Fuc(a1-3)]GlcNAc(b1-3)Gal(b1-4)[Fuc(a1-3)]GlcNAc(b1-3)Gal(b1-4)[Fuc(a1-3)]GlcNAc
# How it was run: as §1
# [3] = biological target: Fuc(a1-2)Gal(b1-4)[Fuc(a1-3)]GlcNAc(b1-3)GalNAc
# How it was run: as §1
# [4] = biological target: Fuc(a1-2)Gal(b1-4)[Fuc(a1-3)]GlcNAc(b1-3)[Neu5Ac(a2-6)Gal(b1-4)GlcNAc(b1-6)]Gal(b1-4)Glc
# How it was run: as §1
# [5] = biological target: Fuc(a1-2)Gal3S(b1-4)GlcNAc
# How it was run: as §1
# [6] = biological target: Fuc(a1-2)Gal6S(b1-3)GlcNAc
# How it was run: as §1
# [7] = biological target: Fuc(a1-2)Gal6S(b1-3)GlcNAc6S
# How it was run: as §1
# Fuc(a1-2)Gal6S(b1-4)Glc = biological target: Fuc(a1-2)Gal6S(b1-4)Glc
# How it was run: as §1
# [8] = biological target: Fuc(a1-2)Gal6S(b1-4)Glc6S
# How it was run: as §1
# [9] = biological target: Fuc(a1-2)Gal6S(b1-4)GlcNAc
# How it was run: as §1
# Fuc(a1-2)[Gal(a1-3)]Gal = biological target: Fuc(a1-2)[Gal(a1-3)]Gal
# How it was run: as §1
# [10] = biological target: Fuc(a1-2)[Gal(a1-3)]Gal(b1-3)GalNAc
# How it was run: as §1
# [11] = biological target: Fuc(a1-2)[Gal(a1-3)]Gal(b1-3)GalNAc(b1-3)Gal(a1-4)Gal(b1-4)Glc
# How it was run: as §1
# [12] = biological target: Fuc(a1-2)[Gal(a1-3)]Gal(b1-3)GlcNAc
# How it was run: as §1
# [13] = biological target: Fuc(a1-2)[Gal(a1-3)]Gal(b1-3)GlcNAc(b1-2)Man(a1-3)[Fuc(a1-2)[Gal(a1-3)]Gal(b1-3)GlcNAc(b1-2)Man(a1-6)]Man(b1-4)GlcNAc(b1-4)GlcNAc
# How it was run: as §1
# [14] = biological target: Fuc(a1-2)[Gal(a1-3)]Gal(b1-3)GlcNAc(b1-2)Man(a1-3)[Fuc(a1-2)[Gal(a1-3)]Gal(b1-3)GlcNAc(b1-2)Man(a1-6)]Man(b1-4)GlcNAc(b1-4)[Fuc(a1-6)]GlcNAc
# How it was run: as §1
# [15] = biological target: Fuc(a1-2)[Gal(a1-3)]Gal(b1-3)GlcNAc(b1-3)GalNAc
# How it was run: as §1
# [16] = biological target: Fuc(a1-2)[Gal(a1-3)]Gal(b1-3)GlcNAc(b1-6)GalNAc
# How it was run: as §1
# [17] = biological target: Fuc(a1-2)[Gal(a1-3)]Gal(b1-4)Glc
# How it was run: as §1
# [18] = biological target: Fuc(a1-2)[Gal(a1-3)]Gal(b1-4)GlcNAc
# How it was run: as §1
# [19] = biological target: Fuc(a1-2)[Gal(a1-3)]Gal(b1-4)GlcNAc(b1-2)Man
# How it was run: as §1
# [20] = biological target: Fuc(a1-2)[Gal(a1-3)]Gal(b1-4)GlcNAc(b1-2)Man(a1-3)[Fuc(a1-2)[Gal(a1-3)]Gal(b1-4)GlcNAc(b1-2)Man(a1-6)]Man(b1-4)GlcNAc(b1-4)GlcNAc
# How it was run: as §1
# [21] = biological target: Fuc(a1-2)[Gal(a1-3)]Gal(b1-4)GlcNAc(b1-2)Man(a1-3)[Fuc(a1-2)[Gal(a1-3)]Gal(b1-4)GlcNAc(b1-2)Man(a1-6)]Man(b1-4)GlcNAc(b1-4)[Fuc(a1-6)]GlcNAc
# How it was run: as §1
# [22] = biological target: Fuc(a1-2)[Gal(a1-3)]Gal(b1-4)GlcNAc(b1-3)GalNAc
# How it was run: as §1
# [23] = biological target: Fuc(a1-2)[Gal(a1-3)]Gal(b1-4)GlcNAc(b1-3)[Fuc(a1-2)[Gal(a1-3)]Gal(b1-4)GlcNAc(b1-6)]GalNAc
# How it was run: as §1
# [24] = biological target: Fuc(a1-2)[Gal(a1-3)]Gal(b1-4)GlcNAc(b1-6)GalNAc
# How it was run: as §1
# [25] = biological target: Fuc(a1-2)[Gal(a1-3)]Gal(b1-4)[Fuc(a1-3)]Glc
# How it was run: as §1
# [26] = biological target: Fuc(a1-2)[Gal(a1-3)]Gal(b1-4)[Fuc(a1-3)]GlcNAc
# How it was run: as §1
# [27] = biological target: Fuc(a1-2)[Gal(a1-3)]Gal(b1-4)[Fuc(a1-3)]GlcNAc(b1-3)GalNAc
# How it was run: as §1
# [28] = biological target: Fuc(a1-2)[Gal(a1-4)]Gal(b1-4)GlcNAc
# How it was run: as §1
# [29] = biological target: Fuc(a1-2)[GalNAc(a1-3)]Gal
# How it was run: as §1
# [30] = biological target: Fuc(a1-2)[GalNAc(a1-3)]Gal(b1-3)GalNAc(a1-3)[Fuc(a1-2)]Gal(b1-4)GlcNAc
# How it was run: as §1
# [31] = biological target: Fuc(a1-2)[GalNAc(a1-3)]Gal(b1-3)GalNAc(b1-3)Gal(a1-4)Gal(b1-4)Glc
# How it was run: as §1
# [32] = biological target: Fuc(a1-2)[GalNAc(a1-3)]Gal(b1-3)GlcNAc
# How it was run: as §1
# [33] = biological target: Fuc(a1-2)[GalNAc(a1-3)]Gal(b1-3)GlcNAc(b1-2)Man(a1-3)[Fuc(a1-2)[GalNAc(a1-3)]Gal(b1-3)GlcNAc(b1-2)Man(a1-6)]Man(b1-4)GlcNAc(b1-4)GlcNAc
# How it was run: as §1
# [34] = biological target: Fuc(a1-2)[GalNAc(a1-3)]Gal(b1-3)GlcNAc(b1-2)Man(a1-3)[Fuc(a1-2)[GalNAc(a1-3)]Gal(b1-3)GlcNAc(b1-2)Man(a1-6)]Man(b1-4)GlcNAc(b1-4)[Fuc(a1-6)]GlcNAc
# How it was run: as §1
# [35] = biological target: Fuc(a1-2)[GalNAc(a1-3)]Gal(b1-3)GlcNAc(b1-3)GalNAc
# How it was run: as §1
# [36] = biological target: Fuc(a1-2)[GalNAc(a1-3)]Gal(b1-3)GlcNAc(b1-6)GalNAc
# How it was run: as §1
# [37] = biological target: Fuc(a1-2)[GalNAc(a1-3)]Gal(b1-4)Glc
# How it was run: as §1
# [38] = biological target: Fuc(a1-2)[GalNAc(a1-3)]Gal(b1-4)GlcNAc
# How it was run: as §1
# [39] = biological target: Fuc(a1-2)[GalNAc(a1-3)]Gal(b1-4)GlcNAc(b1-2)Man
# How it was run: as §1
# [40] = biological target: Fuc(a1-2)[GalNAc(a1-3)]Gal(b1-4)GlcNAc(b1-2)Man(a1-3)[Fuc(a1-2)[GalNAc(a1-3)]Gal(b1-4)GlcNAc(b1-2)Man(a1-6)]Man(b1-4)GlcNAc(b1-4)GlcNAc
# How it was run: as §1
# [41] = biological target: Fuc(a1-2)[GalNAc(a1-3)]Gal(b1-4)GlcNAc(b1-2)Man(a1-3)[Fuc(a1-2)[GalNAc(a1-3)]Gal(b1-4)GlcNAc(b1-2)Man(a1-6)]Man(b1-4)GlcNAc(b1-4)[Fuc(a1-6)]GlcNAc
# How it was run: as §1
# [42] = biological target: Fuc(a1-2)[GalNAc(a1-3)]Gal(b1-4)GlcNAc(b1-3)Gal(b1-4)GlcNAc
# How it was run: as §1
# [43] = biological target: Fuc(a1-2)[GalNAc(a1-3)]Gal(b1-4)GlcNAc(b1-3)Gal(b1-4)GlcNAc(b1-3)Gal(b1-4)GlcNAc
# How it was run: as §1
binder,measurement,setting,value
B1,glycan array binding signal (z-score),[1],-0.508
same,glycan array binding signal (z-score),[2],0.739
same,glycan array binding signal (z-score),[3],2.56
same,glycan array binding signal (z-score),[4],-0.445
same,glycan array binding signal (z-score),[5],-0.21
same,glycan array binding signal (z-score),[6],-0.108
same,glycan array binding signal (z-score),[7],0.35
same,glycan array binding signal (z-score),Fuc(a1-2)Gal6S(b1-4)Glc,0.128
same,glycan array binding signal (z-score),[8],-0.197
same,glycan array binding signal (z-score),[9],-0.1
same,glycan array binding signal (z-score),Fuc(a1-2)[Gal(a1-3)]Gal,0.141
same,glycan array binding signal (z-score),[10],0.724
same,glycan array binding signal (z-score),[11],-0.507
same,glycan array binding signal (z-score),[12],-0.148
same,glycan array binding signal (z-score),[13],-0.032
same,glycan array binding signal (z-score),[14],1.44
same,glycan array binding signal (z-score),[15],-0.628
same,glycan array binding signal (z-score),[16],-0.038
same,glycan array binding signal (z-score),[17],-0.437
same,glycan array binding signal (z-score),[18],-0.643
same,glycan array binding signal (z-score),[19],-0.603
same,glycan array binding signal (z-score),[20],0.423
same,glycan array binding signal (z-score),[21],-0.028
same,glycan array binding signal (z-score),[22],-0.551
same,glycan array binding signal (z-score),[23],-0.295
same,glycan array binding signal (z-score),[24],1.05
same,glycan array binding signal (z-score),[25],-0.844
same,glycan array binding signal (z-score),[26],-0.442
same,glycan array binding signal (z-score),[27],0.642
same,glycan array binding signal (z-score),[28],0.638
same,glycan array binding signal (z-score),[29],-0.685
same,glycan array binding signal (z-score),[30],0.047
same,glycan array binding signal (z-score),[31],0.171
same,glycan array binding signal (z-score),[32],0.48
same,glycan array binding signal (z-score),[33],0.063
same,glycan array binding signal (z-score),[34],0.411
same,glycan array binding signal (z-score),[35],-0.227
same,glycan array binding signal (z-score),[36],0.221
same,glycan array binding signal (z-score),[37],-0.172
same,glycan array binding signal (z-score),[38],-0.412
same,glycan array binding signal (z-score),[39],-0.142
same,glycan array binding signal (z-score),[40],-0.199
same,glycan array binding signal (z-score),[41],1.06
same,glycan array binding signal (z-score),[42],-0.681
same,glycan array binding signal (z-score),[43],0.767

# Laid out differently: entries from further up.
binder | measurement | setting | value
B1 | glycan array binding signal (z-score) | [38] | -0.412
same | glycan array binding signal (z-score) | [39] | -0.142
same | glycan array binding signal (z-score) | [40] | -0.199
